Reference: patent publication US9782491B2, “Peptide conjugates for treating pain” (priority 2012, dated 2017)
Where two headings read alike, the source gives them in different places. For some of these results: Part of at least one peptide drawing is inferred or uncertain, most often the ends. For some of these results: At least one compound was matched to its structure with a doubt left. Ends that are not written are not given here.

Amino acid sequences for entries named in this document (tags omitted).
UniProt Q02294, whole entry: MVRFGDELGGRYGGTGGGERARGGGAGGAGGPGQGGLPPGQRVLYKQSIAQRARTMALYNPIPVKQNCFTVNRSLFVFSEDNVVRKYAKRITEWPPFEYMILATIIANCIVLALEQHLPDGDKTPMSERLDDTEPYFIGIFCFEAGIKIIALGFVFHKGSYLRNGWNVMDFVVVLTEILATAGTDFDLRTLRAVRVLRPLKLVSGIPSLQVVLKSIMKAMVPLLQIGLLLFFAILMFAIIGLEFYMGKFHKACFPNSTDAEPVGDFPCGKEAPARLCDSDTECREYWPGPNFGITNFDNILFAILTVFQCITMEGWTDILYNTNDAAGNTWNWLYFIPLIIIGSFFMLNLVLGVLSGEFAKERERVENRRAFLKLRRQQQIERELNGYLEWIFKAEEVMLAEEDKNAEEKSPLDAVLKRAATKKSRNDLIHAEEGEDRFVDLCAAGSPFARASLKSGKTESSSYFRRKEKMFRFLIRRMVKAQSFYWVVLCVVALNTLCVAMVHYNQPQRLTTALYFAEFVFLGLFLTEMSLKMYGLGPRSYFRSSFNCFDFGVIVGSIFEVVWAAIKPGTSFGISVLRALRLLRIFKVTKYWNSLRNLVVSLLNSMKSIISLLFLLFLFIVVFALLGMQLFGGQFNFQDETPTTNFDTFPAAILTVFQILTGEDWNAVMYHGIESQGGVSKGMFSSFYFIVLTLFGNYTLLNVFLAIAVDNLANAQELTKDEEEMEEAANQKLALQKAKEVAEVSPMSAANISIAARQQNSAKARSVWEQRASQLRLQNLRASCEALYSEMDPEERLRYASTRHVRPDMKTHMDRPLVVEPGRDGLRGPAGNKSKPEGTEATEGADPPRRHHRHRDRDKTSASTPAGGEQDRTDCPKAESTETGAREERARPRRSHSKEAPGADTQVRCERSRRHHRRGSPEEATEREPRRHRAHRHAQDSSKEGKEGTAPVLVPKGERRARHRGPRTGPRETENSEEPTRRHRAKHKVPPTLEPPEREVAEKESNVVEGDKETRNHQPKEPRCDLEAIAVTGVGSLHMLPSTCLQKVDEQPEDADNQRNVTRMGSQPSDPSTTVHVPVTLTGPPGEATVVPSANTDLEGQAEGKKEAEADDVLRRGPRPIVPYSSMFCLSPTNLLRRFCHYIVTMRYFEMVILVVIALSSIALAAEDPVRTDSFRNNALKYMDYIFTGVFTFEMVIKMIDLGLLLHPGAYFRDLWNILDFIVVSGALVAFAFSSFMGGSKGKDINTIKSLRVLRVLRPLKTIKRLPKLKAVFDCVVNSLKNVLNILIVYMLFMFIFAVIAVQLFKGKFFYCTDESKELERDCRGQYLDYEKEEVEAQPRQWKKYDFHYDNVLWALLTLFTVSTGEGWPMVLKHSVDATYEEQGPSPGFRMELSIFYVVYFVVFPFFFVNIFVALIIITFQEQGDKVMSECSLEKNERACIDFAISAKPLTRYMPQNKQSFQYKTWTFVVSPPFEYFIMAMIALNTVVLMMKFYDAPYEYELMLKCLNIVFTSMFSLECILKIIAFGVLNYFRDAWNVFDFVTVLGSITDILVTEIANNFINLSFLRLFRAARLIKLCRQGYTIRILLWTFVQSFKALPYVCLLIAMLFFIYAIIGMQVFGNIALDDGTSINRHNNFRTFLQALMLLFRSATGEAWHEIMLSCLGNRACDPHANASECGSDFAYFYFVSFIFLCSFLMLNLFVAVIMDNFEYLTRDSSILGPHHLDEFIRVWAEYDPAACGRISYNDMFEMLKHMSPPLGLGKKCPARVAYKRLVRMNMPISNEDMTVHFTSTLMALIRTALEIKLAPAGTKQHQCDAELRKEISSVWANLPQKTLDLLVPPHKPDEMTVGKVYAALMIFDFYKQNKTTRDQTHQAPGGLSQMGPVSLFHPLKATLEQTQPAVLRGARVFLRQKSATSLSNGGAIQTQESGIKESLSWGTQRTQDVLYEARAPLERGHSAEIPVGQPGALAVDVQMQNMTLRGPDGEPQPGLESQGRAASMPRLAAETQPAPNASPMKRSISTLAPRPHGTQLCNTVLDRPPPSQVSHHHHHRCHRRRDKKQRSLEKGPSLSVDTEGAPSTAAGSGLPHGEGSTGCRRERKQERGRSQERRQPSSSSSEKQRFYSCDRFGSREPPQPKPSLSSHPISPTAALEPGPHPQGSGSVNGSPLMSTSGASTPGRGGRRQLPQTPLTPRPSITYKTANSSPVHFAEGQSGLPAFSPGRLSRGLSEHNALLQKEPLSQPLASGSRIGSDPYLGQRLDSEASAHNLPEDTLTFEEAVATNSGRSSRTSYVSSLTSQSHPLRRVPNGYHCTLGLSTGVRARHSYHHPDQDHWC

What was measured:
CRMP2 = CRMP2 (Homo sapiens, UniProt Q16555); experiment: Microscale thermophoresis (MST) binding to CRMP2; conditions: read-out: Kd for binding to CRMP2; NT647-labeled CRMP2; peptide 0 to 5 μM; Hill fit
CaV2.2-CRMP2 interaction = molecular target: T1, CaV2.2-CRMP2 interaction (Rattus norvegicus, UniProt Q02294); experiment: Inhibition of CaV2.2-CRMP2 interaction in rat sensory neurons; assay type: cell-based
T1 construct: surface expression of CaV2.2 in rat sensory neurons; endogenous in cells; host or cells: rat sensory neurons

sensory neurons = experiment: Depolarization-evoked Ca2+ influx in sensory neurons; assay type: cell-based
CaV2.2 = molecular target: T2, CaV2.2 (Rattus norvegicus, UniProt Q02294); experiment: Surface expression of CaV2.2 in rat sensory neurons; assay type: cell-based
T2 construct: surface expression of CaV2.2 in rat sensory neurons; endogenous in cells; host or cells: rat sensory neurons

[1] = test system: small to medium diameter sensory neurons; experiment: Excitability of small to medium diameter sensory neurons; assay type: cell-based; conditions: likely via T-type and R-type Ca2+ channels
d4T-treated rats = experiment: d4T-induced mechanical hypersensitivity, paw withdrawal threshold
[2] = 0.17 mg/h for 24 hours via Alzet subcutaneous pump
[3] = 0.17 mg/h for 72 hours via Alzet subcutaneous pump

Sequence: NSSFPSIHCSSWSEE [Ct-dis]
- Kd (CRMP2): 640 ± 100 nM

Sequence: RRRRRRRRRARSRLKELRGVPRGL [ST2-106]
- duration of reduction in tactile hypersensitivity (rats with TNI; [2]): ~20 h
- reduction lasting after cessation of infusion (rats with TNI; [2]): 4 h
- start of reduction in tactile hypersensitivity after pump implantation (rats with TNI; [2]): 8 h
- duration of reduction in tactile hypersensitivity (rats with TNI; [3]): ~62 h
- start of reduction in tactile hypersensitivity after pump implantation (rats with TNI; [3]): 10 h
- duration of antinociception (rats with TNI; single intraperitoneal injection of 20 mg/kg): 4 h
- CaV2.2-CRMP2 interaction (CaV2.2-CRMP2 interaction): concentration-dependently inhibited
- depolarization-evoked Ca2+ influx (sensory neurons): concentration-dependently inhibited
- surface expression of CaV2.2 (CaV2.2): concentration-dependently inhibited
- excitability of sensory neurons [1]: suppressed

Sequence: YGRKKRRQRRRARSRLAELRGVPRGL [ST1-104]
- nerve-injury induced nociception (PWT) (rats with TNI; 10 mg/kg i.p., evaluated at 1 h and 4 h): does not
- paw-withdrawal thresholds in d4T-treated rats (d4T-treated rats; 10 mg/kg oral dosage (in nutella)): reversed
- duration of attenuation of d4T-induced mechanical hypersensitivity (d4T-treated rats; single i.p. 10 mg/kg): at least 1 hour
- duration of attenuation of d4T-induced mechanical hypersensitivity (d4T-treated rats; single i.p. 30 mg/kg body weight): at least 1 hour

Sequence: YGRKKRRQRRRARSRLKELRGVPRGL [ST1-105]
- duration of attenuation of d4T-induced mechanical hypersensitivity (d4T-treated rats; single i.p. 10 mg/kg): at least 4 hour
